# Test results reported in patent US20220073525A1, “COMPOSITIONS FOR INHIBITING UBIQUITIN SPECIFIC PROTEASE 1” (FORMA Therapeutics, Inc., priority 2019, published 2022).
# Protein sequences, listed by entry. Tags and fused reporters are not part of them.
# UniProt O94782, whole entry: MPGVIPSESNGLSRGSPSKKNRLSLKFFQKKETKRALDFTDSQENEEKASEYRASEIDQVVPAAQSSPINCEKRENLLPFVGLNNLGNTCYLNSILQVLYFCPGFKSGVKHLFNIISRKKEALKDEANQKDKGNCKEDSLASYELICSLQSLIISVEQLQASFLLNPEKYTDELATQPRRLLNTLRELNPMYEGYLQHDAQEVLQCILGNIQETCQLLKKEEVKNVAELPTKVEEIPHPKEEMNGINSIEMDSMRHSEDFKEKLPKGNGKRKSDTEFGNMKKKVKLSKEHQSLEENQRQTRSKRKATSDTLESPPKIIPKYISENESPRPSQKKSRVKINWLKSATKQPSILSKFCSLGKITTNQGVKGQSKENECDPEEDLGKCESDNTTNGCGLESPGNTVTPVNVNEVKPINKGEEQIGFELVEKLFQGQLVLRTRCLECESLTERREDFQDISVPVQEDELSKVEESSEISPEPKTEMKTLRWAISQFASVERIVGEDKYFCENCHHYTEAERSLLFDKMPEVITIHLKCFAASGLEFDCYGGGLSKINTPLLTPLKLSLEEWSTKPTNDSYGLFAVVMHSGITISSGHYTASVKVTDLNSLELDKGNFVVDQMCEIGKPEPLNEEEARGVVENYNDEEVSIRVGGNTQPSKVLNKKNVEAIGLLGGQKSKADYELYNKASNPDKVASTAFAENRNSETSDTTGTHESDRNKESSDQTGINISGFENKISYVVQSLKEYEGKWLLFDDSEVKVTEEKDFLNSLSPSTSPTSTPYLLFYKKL
# UniProt Q8TAF3, whole entry partner: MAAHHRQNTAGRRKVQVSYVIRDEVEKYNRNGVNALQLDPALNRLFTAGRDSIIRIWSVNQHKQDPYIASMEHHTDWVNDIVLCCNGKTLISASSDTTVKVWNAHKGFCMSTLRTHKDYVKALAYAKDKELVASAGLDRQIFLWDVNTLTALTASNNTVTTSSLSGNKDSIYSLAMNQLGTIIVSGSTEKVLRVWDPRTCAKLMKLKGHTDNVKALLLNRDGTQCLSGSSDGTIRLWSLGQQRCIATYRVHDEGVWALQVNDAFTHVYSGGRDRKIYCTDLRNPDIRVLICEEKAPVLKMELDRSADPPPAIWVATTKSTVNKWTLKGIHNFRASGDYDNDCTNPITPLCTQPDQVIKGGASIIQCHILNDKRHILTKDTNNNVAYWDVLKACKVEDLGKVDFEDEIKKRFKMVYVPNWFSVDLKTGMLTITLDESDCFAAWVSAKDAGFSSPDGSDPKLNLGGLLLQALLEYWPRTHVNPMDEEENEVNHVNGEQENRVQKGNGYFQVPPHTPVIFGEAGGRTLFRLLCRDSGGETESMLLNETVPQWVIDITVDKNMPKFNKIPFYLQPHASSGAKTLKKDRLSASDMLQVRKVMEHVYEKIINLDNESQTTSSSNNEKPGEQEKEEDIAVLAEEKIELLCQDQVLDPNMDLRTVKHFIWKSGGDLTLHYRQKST
# pIC50: −log10 of the molar value. Structures were worked out from names or drawings and are uncertain.
# Molecular target: USP1 (Homo sapiens, UniProt O94782)
# Experiment: Biochemical Assay for USP1 Inhibition (Ub-Rho 110 fluorescence)
# Conditions: Table 6, additional compounds; 30 min preincubation, Enzyme 0.025 nM, Substrate Ub-Rho 110 25 nM
# Experimental: The assay was performed in a final volume of 6 μL in assay buffer containing 20 mM Tris-HCl pH 8.0, (1 M Tris-HCl, pH 8.0 solution; Corning 46-031-CM), 1 mM GSH (L-glutathione reduced, Sigma-Aldrich, G4251-100G), 0.03% BGG (0.22 μM filtered, Sigma, G7516-25G), and 0.01% Triton X-100 (Sigma, T9284-10L). Nanoliter quantities of 10-point, 3-fold serial dilution in DMSO were pre-dispensed into 1536 assay plates (Corning, #3724BC) for a final test concentration of 25 μM to 1.3 nM, top to lowest dose, respectively. Concentration and incubation times were optimized for the maximal signal-to-background while maintaining initial velocity conditions at a fixed substrate concentration (<<Km). […] Plates were read using a kinetic protocol continuously for 11 min on the Envision (Perkin Elmer) or PheraSTAR (BMG), excitation at 485 nm and emission at 535 nm or excitation at 520 nm and emission at 590 nm. For all assay formats, data were reported as percent inhibition compared with control wells based on the following equation: % inh=100*([…]), where FLU=measured Fluorescence, AveLow=average Fluorescence of no enzyme control (n=32), and AveHigh=average Fluorescence of DMSO control (n=32). IC50 values were determined by curve fitting of the standard 4 parameter logistic fitting algorithm included in the Activity Base software package: TDBS XE Designer Model205. […]
compound,measurement,value
Cc1nc(-c2cccnc2C(C)C)c2n1CCN(c1ccc(-c3nc(C(F)(F)F)cn3C)cc1)CC2,pIC50,5.00 to 6.00
